Test in all cases: co-IP
Holding throughout (conditions): remark: other sources report otherwise

Assay [1] concerns the target V5-RIP3 WT expressed in RIP3-KO L929 cells (mouse), Q9QZL0.
Assay [2] has as its target V5-RIP3 WT (mouse), Q9QZL0.
The target of assay [3] is T1, Flag-RIP1 (mouse), Q60855.
T1 chain: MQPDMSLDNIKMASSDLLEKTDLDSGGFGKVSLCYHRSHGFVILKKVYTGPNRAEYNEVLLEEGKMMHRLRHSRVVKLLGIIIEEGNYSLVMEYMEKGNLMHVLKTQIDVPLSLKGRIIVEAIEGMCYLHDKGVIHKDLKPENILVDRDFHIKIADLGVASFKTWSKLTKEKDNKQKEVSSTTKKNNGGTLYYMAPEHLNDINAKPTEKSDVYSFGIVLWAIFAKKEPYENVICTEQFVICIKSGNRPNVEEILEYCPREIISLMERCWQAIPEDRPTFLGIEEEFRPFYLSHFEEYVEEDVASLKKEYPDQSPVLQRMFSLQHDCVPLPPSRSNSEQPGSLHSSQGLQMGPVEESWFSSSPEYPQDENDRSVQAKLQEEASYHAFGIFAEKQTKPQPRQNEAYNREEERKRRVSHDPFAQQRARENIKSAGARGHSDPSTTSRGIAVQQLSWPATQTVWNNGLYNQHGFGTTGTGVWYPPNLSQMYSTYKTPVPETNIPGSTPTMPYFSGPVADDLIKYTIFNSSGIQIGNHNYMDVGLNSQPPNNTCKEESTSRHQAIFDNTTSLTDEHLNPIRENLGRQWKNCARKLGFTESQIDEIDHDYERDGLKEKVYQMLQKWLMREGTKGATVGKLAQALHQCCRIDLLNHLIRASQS

These are yes or no findings as the source states them, for the method shown. In cells and extracts the contact can be indirect. Some entries that bind do so weakly or less than the wild type. For part of these data: Tags and fused reporters may be left off the sequences shown.

B1: RIP1, endogenous in L929 cells, Q60855 1-656 (protein)
chain: T1 chain
For B1, the binding entry in assay [1] is listed as “binds”.

B2: Flag-RIP1, Q60855 1-656 (protein)
chain: T1 chain
Turning to B2, in assay [2], the binding result is reported as “binds”.

B3: V5-RIP3 WT, Q9QZL0 1-486 (protein)
chain: MSSVKLWPTGASAVPLVSREELKKLEFVGKGGFGVVFRAHHRTWNHDVAVKIVNSKKISWEVKAMVNLRNENVLLLLGVTEDLQWDFVSGQALVTRFMENGSLAGLLQPECPRPWPLLCRLLQEVVLGMCYLHSLNPPLLHRDLKPSNILLDPELHAKLADFGLSTFQGGSQSGSGSGSGSRDSGGTLAYLDPELLFDVNLKASKASDVYSFGILVWAVLAGREAELVDKTSLIRETVCDRQSRPPLTELPPGSPETPGLEKLKELMIHCWGSQSENRPSFQDCEPKTNEVYNLVKDKVDAAVSEVKHYLSQHRSSGRNLSAREPSQRGTEMDCPRETMVSKMLDRLHLEEPSGPVPGKCPERQAQDTSVGPATPARTSSDPVAGTPQIPHTLPFRGTTPGPVFTETPGPHPQRNQGDGRHGTPWYPWTPPNPMTGPPALVFNNCSEVQIGNYNSLVAPPRTTASSSAKYDQAQFGRGRGWQPFHK
B3: the binding result in assay [3] is on record as “binds”.

Values taken from publication doi:10.1101/2024.02.21.581356.
